Source: publication PMC6812846
Results are given in words; binding and its absence hold for the method and conditions named. In cells and extracts the contact can be indirect. Some entries that bind do so weakly or less than the wild type. Tags and fused reporters may be left off the sequences shown.

Amino acid sequences for entries named in this document (tags omitted).
UniProt P09874: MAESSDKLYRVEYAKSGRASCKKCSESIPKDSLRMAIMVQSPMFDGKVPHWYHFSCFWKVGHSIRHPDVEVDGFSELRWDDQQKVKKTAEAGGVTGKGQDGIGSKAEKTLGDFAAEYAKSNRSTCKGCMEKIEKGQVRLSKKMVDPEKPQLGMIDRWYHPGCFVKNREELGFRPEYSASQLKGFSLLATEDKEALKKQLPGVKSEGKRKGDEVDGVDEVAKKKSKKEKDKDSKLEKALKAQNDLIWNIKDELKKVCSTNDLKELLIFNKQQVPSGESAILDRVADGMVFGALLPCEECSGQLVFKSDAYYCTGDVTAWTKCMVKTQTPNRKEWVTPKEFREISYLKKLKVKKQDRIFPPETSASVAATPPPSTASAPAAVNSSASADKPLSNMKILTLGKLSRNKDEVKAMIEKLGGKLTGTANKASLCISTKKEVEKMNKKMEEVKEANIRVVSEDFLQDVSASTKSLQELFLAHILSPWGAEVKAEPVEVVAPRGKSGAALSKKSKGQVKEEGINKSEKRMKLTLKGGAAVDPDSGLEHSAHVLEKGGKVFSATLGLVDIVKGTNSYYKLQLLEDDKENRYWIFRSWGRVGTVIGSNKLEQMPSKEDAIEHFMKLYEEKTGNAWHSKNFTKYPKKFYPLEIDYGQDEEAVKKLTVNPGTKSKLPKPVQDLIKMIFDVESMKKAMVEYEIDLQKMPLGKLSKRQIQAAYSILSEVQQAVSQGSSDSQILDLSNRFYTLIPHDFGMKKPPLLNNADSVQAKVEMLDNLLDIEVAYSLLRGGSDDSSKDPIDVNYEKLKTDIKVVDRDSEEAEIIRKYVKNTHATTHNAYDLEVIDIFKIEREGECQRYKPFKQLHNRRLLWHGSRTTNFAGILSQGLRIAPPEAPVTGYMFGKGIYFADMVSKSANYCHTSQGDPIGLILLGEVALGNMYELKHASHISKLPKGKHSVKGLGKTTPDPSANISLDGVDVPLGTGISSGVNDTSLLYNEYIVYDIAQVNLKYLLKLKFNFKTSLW
UniProt Q9UGN5: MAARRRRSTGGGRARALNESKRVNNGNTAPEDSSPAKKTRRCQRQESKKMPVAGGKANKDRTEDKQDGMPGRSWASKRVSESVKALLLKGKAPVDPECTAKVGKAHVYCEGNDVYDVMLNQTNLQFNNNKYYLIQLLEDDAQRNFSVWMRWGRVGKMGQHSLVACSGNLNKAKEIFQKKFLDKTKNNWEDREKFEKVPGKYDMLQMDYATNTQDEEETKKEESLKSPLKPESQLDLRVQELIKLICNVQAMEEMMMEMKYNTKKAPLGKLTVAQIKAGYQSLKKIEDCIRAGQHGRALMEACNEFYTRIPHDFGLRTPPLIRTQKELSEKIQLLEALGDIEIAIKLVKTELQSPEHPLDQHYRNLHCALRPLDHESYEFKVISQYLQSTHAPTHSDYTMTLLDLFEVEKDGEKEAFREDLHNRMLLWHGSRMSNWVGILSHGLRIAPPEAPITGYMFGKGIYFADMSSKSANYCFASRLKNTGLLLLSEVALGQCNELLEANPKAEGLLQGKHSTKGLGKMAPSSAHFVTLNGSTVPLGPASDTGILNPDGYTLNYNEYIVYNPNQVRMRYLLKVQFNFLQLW

T1: 3×Flag-KHDC3L (wild-type KH domain containing 3 like) (human) (UniProt Q587J8)
T1 sequence: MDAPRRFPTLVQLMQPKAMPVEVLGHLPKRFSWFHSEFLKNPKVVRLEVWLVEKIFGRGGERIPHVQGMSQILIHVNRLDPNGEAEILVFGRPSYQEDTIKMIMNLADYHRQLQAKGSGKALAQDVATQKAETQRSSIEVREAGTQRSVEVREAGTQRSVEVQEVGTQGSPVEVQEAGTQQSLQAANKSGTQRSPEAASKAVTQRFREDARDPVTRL

T2: 3×Flag-KHDC3L Δ23 (p.E150_V172del) (human) (UniProt Q587J8)
T2 sequence: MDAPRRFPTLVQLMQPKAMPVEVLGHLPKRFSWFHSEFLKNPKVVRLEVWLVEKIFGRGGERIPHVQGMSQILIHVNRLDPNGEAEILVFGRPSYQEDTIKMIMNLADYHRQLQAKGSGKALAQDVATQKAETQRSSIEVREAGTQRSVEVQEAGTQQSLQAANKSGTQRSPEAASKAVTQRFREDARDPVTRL

T3: 3×Flag-KHDC3L Δ11 (p.E150_V160del) (human) (UniProt Q587J8)
T3 sequence: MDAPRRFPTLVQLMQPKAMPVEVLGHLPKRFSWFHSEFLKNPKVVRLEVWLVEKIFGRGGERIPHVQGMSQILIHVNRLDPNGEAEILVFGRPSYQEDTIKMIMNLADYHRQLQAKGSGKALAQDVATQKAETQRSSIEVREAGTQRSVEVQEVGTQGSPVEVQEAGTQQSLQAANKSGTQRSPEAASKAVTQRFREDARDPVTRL

B1: 3×Flag-KHDC3L (wild-type KH domain containing 3 like) (protein, UniProt Q587J8 1-217)
chain: T1 sequence

Experiments:
Assay in all cases: co-IP; reciprocal co-IP from hESCs reconstructed with 3×Flag-KHDC3L (antibody against Flag, and reciprocal immunoprecipitation); 1 × 10^7 cells lysed in RIPA lysis buffer, Protein G Dynabeads, immunoblotting; cells with or without DNA damage
[1] = molecular target: T1, 3×Flag-KHDC3L (wild-type KH domain containing 3 like) (human)
[2] = molecular target: T2, 3×Flag-KHDC3L Δ23 (p.E150_V172del) (human)
[3] = molecular target: T3, 3×Flag-KHDC3L Δ11 (p.E150_V160del) (human)
[4] = molecular target: poly(ADP-ribose) polymerase 1 (human (endogenous in hESCs)) (UniProt P09874)

Row | Molecule | binding [1] | binding [2] | binding [3] | binding [4]
1 | PARP2 (from UniProt Q9UGN5 1-583) (enzyme) | no binding |  |  | 
2 | poly(ADP-ribose) polymerase 1 (from UniProt P09874 1-1014) (enzyme) | binds | binds | binds | 
3 | B1 |  |  |  | binds
